The record followed here is ChEMBL document CHEMBL4184194, “An appraisal on synthetic and pharmaceutical perspectives of pyrazolo[4,3-d]pyrimidine scaffold” (Bioorg Med Chem, 2018).

Values after ≈ are worked out from the molar mass of the structure shown.

The test system of assay [1] is Staphylococcus aureus. Description: Antimicrobial activity against Staphylococcus aureus ATCC 6538 by two-fold serial dilution assay. It counts as functional.
Assay [2] relates to Escherichia coli. Description: Antimicrobial activity against Escherichia coli NCTC 10418 by two-fold serial dilution assay. It counts as functional.

On to `CC1(C)S[C@@H]2[C@H](NC(=O)[C@H](N)c3ccccc3)C(=O)N2[C@H]1C(=O)O` [AMPICILLIN], for which the MIC came out at 3.9 mg/L (≈ 11.2 µM) in assay [1] and 7.81 mg/L (≈ 22.4 µM) in assay [2].

In general, MIC refers to the smallest concentration in the dilution series that meets the test's criterion for growth inhibition.
